This assay concerns the target T1, Nsl1 (mouse (endogenous in mESCs)) (UniProt Q80TG1).
T1 sequence: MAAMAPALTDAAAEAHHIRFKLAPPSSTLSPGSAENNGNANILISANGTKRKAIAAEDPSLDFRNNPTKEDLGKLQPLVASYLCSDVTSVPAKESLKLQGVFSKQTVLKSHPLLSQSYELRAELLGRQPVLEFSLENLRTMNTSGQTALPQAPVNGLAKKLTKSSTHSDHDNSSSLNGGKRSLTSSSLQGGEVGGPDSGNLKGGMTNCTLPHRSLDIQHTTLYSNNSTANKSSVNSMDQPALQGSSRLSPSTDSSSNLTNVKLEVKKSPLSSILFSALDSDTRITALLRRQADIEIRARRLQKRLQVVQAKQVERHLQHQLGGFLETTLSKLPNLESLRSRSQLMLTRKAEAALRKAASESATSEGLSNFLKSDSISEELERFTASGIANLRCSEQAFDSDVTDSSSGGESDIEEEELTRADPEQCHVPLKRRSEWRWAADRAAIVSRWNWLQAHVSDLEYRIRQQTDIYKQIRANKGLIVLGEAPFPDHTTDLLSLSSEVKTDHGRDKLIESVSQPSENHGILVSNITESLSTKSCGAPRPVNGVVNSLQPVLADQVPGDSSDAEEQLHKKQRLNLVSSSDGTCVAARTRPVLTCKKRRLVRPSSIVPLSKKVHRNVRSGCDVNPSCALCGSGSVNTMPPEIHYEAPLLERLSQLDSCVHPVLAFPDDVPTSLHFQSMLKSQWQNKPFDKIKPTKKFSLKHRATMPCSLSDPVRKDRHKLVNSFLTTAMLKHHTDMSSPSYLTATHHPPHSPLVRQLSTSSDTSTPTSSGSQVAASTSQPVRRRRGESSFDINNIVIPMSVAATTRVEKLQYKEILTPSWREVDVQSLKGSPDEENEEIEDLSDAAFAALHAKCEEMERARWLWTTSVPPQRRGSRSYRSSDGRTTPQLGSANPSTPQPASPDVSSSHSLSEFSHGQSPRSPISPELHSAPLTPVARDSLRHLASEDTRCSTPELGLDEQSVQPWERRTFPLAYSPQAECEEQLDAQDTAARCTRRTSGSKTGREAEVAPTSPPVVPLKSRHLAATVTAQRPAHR
Put plainly: affinity purification with mass spectrometry; anti-Msl1 (3208) or anti-Nsl1 (3130) antibody on protein A Sepharose, 3 mg (Msl1) or 1 mg (Nsl1) mESC nuclear extract; washes in IP buffer (25 mM Tris-HCl pH 7.9, 10% glycerol, 0.1% NP40, 0.5 mM DTT, 5 mM MgCl2) with 100 mM then 250 mM KCl; glycine pH 2.6 elution; MudPIT; MOCK IP with an antibody to yeast TAF90 as control.

These are yes or no findings as the source states them, for the method shown. Binding seen in cells or lysates may run through a third protein. A yes stands for co-enrichment or nearness to the bait. Other partners may have been found.

B1: Mof (male absent on the first) (enzyme, UniProt Q9D1P2 1-458)
chain: MAAQGATAAVAATTSGTVGEGEPGPGENAAVEGPARSPGRVSPPTPARGEPEVTVEIGETYLCRRPDSTWHSAEVIQSRVNDQEGREEFYVHYVGFNRRLDEWVDKNRLALTKTVKDAVQKNSEKYLSELAEQPERKITRNQKRKHDEINHVQKTYAEMDPTTAALEKEHEAITKVKYVDKIHIGNYEIDAWYFSPFPEDYGKQPKLWLCEYCLKYMKFEKSYRFHLGQCQWRQPPGKEIYRKSNISVYEVDGKDHKIYCQNLCLLAKLFLDHKTLYFDVEPFVFYILTEVDRQGAHIVGYFSKEKESPDGNNVACILTLPPYQRRGYGKFLIAFSYELSKLESTVGSPEKPLSDLGKLSYRSYWSWVLLEILRDFRGTLSIKDLSQMTSITQNDIISTLQSLNMVKYWKGQHVICVTPKLVEEHLKSAQYKKPPITVDSVCLKWAPPKHKQVKLSKK
For B1, the binding entry is reported as “binds”.

The values above are taken from article PMC4059888.
